Test results published in patent publication US9173935B2, “Phospholipid drug analogs” (Telormedix SA, priority 2010, dated 2015).
For at least one compound, name, drawing or mass did not settle the structure.

Assays:
[1] = Storage stability by HPLC (solid or chloroform solution; temperature, light); assay type: physicochemical
[2] = Stability of solid samples with respect to heat (80° C.), HPLC; assay type: physicochemical
Description: Solid samples of each compound were maintained at 80° C. and analyzed by HPLC.

whole blood = assay: Cytokine secretion in human whole blood assay (ELISA); assay type: cell-based; conditions: 6 hours incubation
Description: A volume of approximately 55 mL fresh whole blood was drawn in heparinized Vacutainers from three healthy adult anonymous volunteers as described (J. A. Ida, Journal of Immunol Methods, 310, 2006, 86-99). […] Before drawing the blood, the compounds were added to 96 well round bottom plates in a 10× diluted sample at 20 ul. The compounds were diluted in RPMI media without serum but with antibiotics. Antibiotics were added at a 10× concentration. After drawing the blood, the whole blood sample was gently mixed to obtain a homogeneous sample, and 180 ul was added to each well.
After 6 hours and 24 hours incubation, plasma was removed for ELISA (IL-6, IL-10, IL-12p40 and IFN-alpha). ELISA was made at the 6 and 24 hours time point for all concentrations. After 24 hours incubation with selected compound concentrations, cells were analyzed for activation markers by FACS.
All compounds were setup in concentrations at 0-0.01-0.03-0.1-0.5-2.0-10.0 micromolar as the final concentration. Vehicle control was DMSO control, where we used the highest concentration used for the compounds. After addition of blood, all plates were gently agitated at 37° C. and 5% CO2 until harvest. […]
Concentrations of cytokines were determined by ELISA from R&D Systems. The results were analyzed in Graph Pad Prism in order to prepare dose-response […]

HLA-DR+/CD20+ B cells = assay: FACS analysis of B cell activation (CD40) in whole blood; assay type: cell-based, human; conditions: 24 hours, 2 and 10 uM, three donors
Description: (§1) A flow cytometric analysis was performed on whole blood from three donors after treatment with two compound concentrations for 24 h. The FACS analysis for donor 1 and donor 2 was made on another day than donor 3. The compound concentrations were as follows:
B cell activation: 2 and 10 uM
(§2) The FACS analysis was used to identify whether the test compounds could induce activation of B cells, and two different subsets of dendritic cells, namely the myeloid CD11c+/CD123− DCs and the plasmacytoid CD11c−/CD123+ DCs. The following markers were studied to identify the activation status of the different subsets:
(§3) The FACS staining was performed according to the manufacturer's instructions. Lysis of red blood cells was performed before FACS staining in order to minimize auto-florescence. To include as many B cells and DCs in the study as possible the FACS analyses were performed on 500,000 cells in total for each staining. A P1 gate was set only to include relevant cells on FSC vs. SSC (see FIGS. 12-15). The results of the individual analysis were present as Mean Fluorescence Intensity
The analysis of expression of the activation marker CD40 on B cells was made on double positive HLA-DR (MHC class II) (P4 gate) and CD20 cells (B cell marker) (P8 gate).

[3] = tested on: HLA-DR+/CD11c+/CD123- mDCs; assay: FACS analysis of myeloid DC activation in whole blood; assay type: cell-based, human; conditions: 24 hours, 0.1 and 0.5 uM, three donors
Description: as §1, §2, §3
The analysis of myeloid DCs was based on HLA-DR+/CD11c+/CD123-cells, thus all analyzed cells was included in the HLA-DR+ (P3) gate and CD11c+/CD123− (Q4) gate (see gates in FIGS. 13-15).

[4] = tested on: HLA-DR+/CD11c-/CD123+ pDCs; assay: FACS analysis of plasmacytoid DC activation in whole blood; assay type: cell-based, human; conditions: 24 hours, 0.1 and 0.5 uM, three donors
Description: as §1, §2, §3
The analysis of pDCs was based on HLA-DR+/CD11c−/CD123+ cells, thus all analyzed cells were included in the HLA-DR+ (P3) gate and CD11c−/CD123+(Q1) gate. (FIGS. 13-15).

Structure (SMILES): CCCCCCCC/C=C\CCCCCCCC(=O)OCC(COP(=O)(O)OCCNC(=O)c1ccc(Cn2c(=O)[nH]c3c(N)nc(OCCOC)nc32)cc1)OC(=O)CCCCCCC/C=C\CCCCCCCC (stereo not drawn) [Compound A, 2-(4-((6-amino-2-(2-methoxyethoxy)-8-oxo-7H-purin-9(8H)-yl)methyl)benzamido)ethyl 2,3-bis(oleoyloxy)propyl phosphate]
- HPLC RRT = 1 ([1]; Solid, +4° C., t = 2 days): 95.6%
- HPLC RRT = 1 ([1]; Solid, +4° C., t = 5 days): 94.7%
- HPLC RRT = 1 ([1]; Solid, +4° C., t = 7 days): 94.9%
- HPLC RRT = 1 ([1]; Solid, +4° C., t = 20 days): 90.4%
- HPLC RRT = 1 ([1]; Solid, external T (28-35° C.) and light, t = 2 days): 37.6%
- HPLC RRT = 1 ([1]; Solid, external T (28-35° C.) and light, t = 6 days): 35.4%
- HPLC RRT = 1 ([1]; Solid, external T (28-35° C.) and light, t = 6 days, listed as CH730/16/8G): 35.4%
- HPLC RRT = 1 ([1]; Solid, external temperature and light, t = 2 days): 94.1%
- HPLC RRT = 1 ([1]; Solid, external temperature and light, t = 5 days): 92.0%
- HPLC RRT = 1 ([1]; Solid, external temperature and light, t = 7 days): 92.0%
- HPLC RRT = 1 ([1]; Solid, external temperature and light, t = 20 days): 43.8%
- HPLC RRT = 1 ([1]; Solid, room temperature and light, t = 2 days): 94.6%
- HPLC RRT = 1 ([1]; Solid, room temperature and light, t = 5 days): 91.7%
- HPLC RRT = 1 ([1]; Solid, room temperature and light, t = 7 days): 91.8%
- HPLC RRT = 1 ([1]; Solid, room temperature and light, t = 20 days): 68.5%
- HPLC RRT = 1 ([1]; Solution in CHCl3, +4° C., t = 2 days): 95.3%
- HPLC RRT = 1 ([1]; Solution in CHCl3, +4° C., t = 5 days): 95.3%
- HPLC RRT = 1 ([1]; Solution in CHCl3, +4° C., t = 7 days): 95.2%
- HPLC RRT = 1 ([1]; Solution in CHCl3, +4° C., t = 20 days): 93.9%
- HPLC RRT = 1 ([1]; Solution in CHCl3, RT and light, t = 1 day): 80.9%
- HPLC RRT = 1 ([1]; Solution in CHCl3, RT and light, t = 5 days): 79.3%
- HPLC RRT = 1 ([1]; Solution in CHCl3, RT and light, t = 7 days): 80.5%
- HPLC RRT = 1 ([1]; Solution in CHCl3, RT and light, t = 11 days): 82.0%
- HPLC RRT = 1 ([1]; Solution in CHCl3, T about 30° C. without light, t = 1 day): 80.7%
- HPLC RRT = 1 ([1]; Solution in CHCl3, external T and light, t = 1 day): 80.3%
- HPLC RRT = 1 ([1]; Solution in CHCl3, external temperature and light, t = 2 days): 94.2%
- HPLC RRT = 1 ([1]; Solution in CHCl3, external temperature and light, t = 5 days): 90.2%
- HPLC RRT = 1 ([1]; Solution in CHCl3, external temperature and light, t = 7 days): 89.0%
- HPLC RRT = 1 ([1]; Solution in CHCl3, external temperature and light, t = 20 days): 55.6%
- HPLC RRT = 1 ([1]; Solution in CHCl3, room temperature and light, t = 2 days): 95.5%
- HPLC RRT = 1 ([1]; Solution in CHCl3, room temperature and light, t = 5 days): 95.4%
- HPLC RRT = 1 ([1]; Solution in CHCl3, room temperature and light, t = 7 days): 95.5%
- HPLC RRT = 1 ([1]; Solution in CHCl3, room temperature and light, t = 20 days): 94.4%
- HPLC RRT = 1 ([1]; t = 0, listed as CH730/16/8G): 81.4%
- HPLC RRT = 1 ([1]; t = 0, listed as CH730/23/8E): 95.6%
- HPLC purity of solid sample ([2]; After 2 hrs at 80° C.): 73% HPLC
- HPLC purity of solid sample ([2]; t = 0): 95% HPLC
- IL-10 production (whole blood): no IL-10 production was seen
- CD40 expression (MFI) on B cells (HLA-DR+/CD20+ B cells): induced CD40 expression in donor 1 and donor 2 in all tested concentrations
- CD80 expression on mDCs [3]: induced a noteworthy CD80 expression in all three donors
- CD86 expression on mDCs [3]: further stimulates the expression of CD86 in all three donors
- CCR7 expression on pDCs [4]: induced largely higher CCR7 expression than SC12
